These are yes or no findings as the source states them, for the method shown. Some entries that bind do so weakly or less than the wild type. Tags and fused reporters may be left off the sequences shown.
Target: T1, N-terminally hexahistidine-fused RecN (His-RecN), Escherichia coli (E. coli) (UniProt P05824)
T1 sequence: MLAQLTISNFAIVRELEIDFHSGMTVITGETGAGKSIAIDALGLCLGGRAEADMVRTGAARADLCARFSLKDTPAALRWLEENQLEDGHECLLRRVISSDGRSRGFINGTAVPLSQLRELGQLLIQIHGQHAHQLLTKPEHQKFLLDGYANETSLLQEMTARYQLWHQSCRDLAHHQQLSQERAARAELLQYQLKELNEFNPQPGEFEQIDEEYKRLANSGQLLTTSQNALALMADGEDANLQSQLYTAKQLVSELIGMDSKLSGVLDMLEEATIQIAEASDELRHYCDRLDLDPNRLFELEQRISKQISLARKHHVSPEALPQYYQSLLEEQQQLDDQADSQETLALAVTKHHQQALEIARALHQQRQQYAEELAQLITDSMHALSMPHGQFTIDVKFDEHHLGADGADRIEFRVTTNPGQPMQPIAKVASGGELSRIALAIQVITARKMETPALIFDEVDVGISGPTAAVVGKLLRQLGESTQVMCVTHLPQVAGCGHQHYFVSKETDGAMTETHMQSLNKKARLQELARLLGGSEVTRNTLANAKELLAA
Experiment: pull-down; His-RecN (1 uM) and RecA (1 uM) incubated at 37 °C for 10 min in buffer D (20 mM Tris-HCl pH 7.5, 0.01% NP-40, 7 mM 2-mercaptoethanol) with 50 mM KCl, 2 mM MgCl2, 5% glycerol, 2 mM ATP; captured on Co2+-conjugated magnetic beads with 10 mM imidazole at 4 °C for 15 min; washed with 100 mM KCl, 20 mM imidazole; SDS-PAGE and CBB staining; both purified

The chains behind the UniProt entries cited, without tags or fusion partners.
UniProt P0A7G6: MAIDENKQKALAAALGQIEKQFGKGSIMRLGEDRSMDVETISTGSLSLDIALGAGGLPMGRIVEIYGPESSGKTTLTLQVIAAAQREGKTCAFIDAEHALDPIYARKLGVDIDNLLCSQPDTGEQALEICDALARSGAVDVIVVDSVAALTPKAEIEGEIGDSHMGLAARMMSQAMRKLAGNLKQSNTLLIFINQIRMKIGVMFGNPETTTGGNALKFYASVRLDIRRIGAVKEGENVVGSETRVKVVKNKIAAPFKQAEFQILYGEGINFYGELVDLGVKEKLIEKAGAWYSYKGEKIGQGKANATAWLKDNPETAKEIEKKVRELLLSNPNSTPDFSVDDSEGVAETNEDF

“E. coli RecA (from UniProt P0A7G6 1-353)” was tested. Which binding did it give?
Its binding is “binds weakly”.
